Experimental findings from publication PMC10845965, “Gold(I) ion and the phosphine ligand are necessary for the anti-Toxoplasma gondii activity of auranofin” (Microbiology Spectrum, 2024) are described below.

The structures appear in SMILES notation.

In one series the test system is HFF host cells. Briefly: Host cell viability and TD50 determination. In kind it is cell-based, human. The conditions noted are these: ratio of TD50 on host cells over IC50 on parasites. The procedure: Confluent monolayers of HFF host cells (approximately 1 × 10^4) plated in clear bottom 96-well plates were treated with twofold dilutions of compounds of interest. After 5 days of incubation, 15 µL of dye solution (tetrazolium salt) was added to each well. The plates were incubated at 37°C for 4 hours; then, the reaction was stopped to solubilize the formazan product (Cell Titer 96 Nonradioactive Cell Proliferation Assay Promega). Absorbance at 570 ʎ (A570) was recorded using a multimode microplate plate reader (Molecular Devices Spectramax i5, SoftMax Pro 7.0.2 Software). The A570 absorbance reading is directly proportional to the number of viable cells. The values are presented as percentages of cell viability relative to the untreated controls (defined as 100% survival) and plotted against the log of compound concentrations. The log (auranofin derivative) vs cell viability curve with variable slope was generated to calculate TD50 values.

A further series deals with T. gondii tachyzoites. Briefly: Quantitative detection of gold by ICP-MS. It is filed as cell-based, Toxoplasma gondii. The conditions noted are these: auranofin 10 µM, 4 hours.

As for `CC(=O)OC[C@H]1O[C@@H]([S-])[C@H](OC(C)=O)[C@@H](OC(C)=O)[C@@H]1OC(C)=O.CCP(CC)CC.[Au+]` [Auranofin], the “In vitro therapeutic index” value with HFF host cells was found to be 9.2. The figures for the “gold concentration in parasites (ICP-MS)” value in the series on T. gondii tachyzoites (extracellular parasites) and in the series on T. gondii tachyzoites (intracellular parasites (exposed inside host cells)) were 7.181 ppb and 3.701 ppb, respectively.
Take `[Cl][Au][PH](Cc1ccccc1)(c1ccccc1)c1ccccc1` [Compound 6]: the “In vitro therapeutic index” value in the series on HFF host cells amounted to 10.6.
Turning to `[Cl][Au].c1ccc(P(c2ccccc2)c2ccccc2)cc1` [Compound 31], in the series on HFF host cells, the “In vitro therapeutic index” value came to 126.2.
